PubChem BioAssay AID1259254 – NCATS | 2017

Aim: 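Finding genes that stop cells copying their DNA twice in one cycle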 (primary screen)
System: human HCT116 colorectal cancer cells
Reagent: single siRNA against human genes
Timing: 3 days
Detection: 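Imaged Hoechst DNA stain sorts each cell into a cycle phase by DNA amount; per plate, G2 fraction set to 0% for non-targeting and 100% for GMNN siRNA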
Reading the numbers: G2 robust z-score and G2 cells, % of GMNN control: higher = more G2 cells, more excess DNA replication; raw share of cells in G2: higher = larger share of cells with G2 DNA content
Rule for the call: 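An siRNA counts as active if its G2 robust z-score lies at least 5 MADs above the screen median; here such calls match roughly 38% of GMNN control or more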
In all, the deposit lists about 59,000 reagents; this is a part drawn at random. About 1,550 of all reagents (2.6%) count as active. 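G2 share is only a proxy for re-replication; each gene was hit by three separate siRNAs, and active genes were retested.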 Raw values vary from plate to plate and are shown uncorrected. Entries without a mark were called inactive. The numbers tell different reagents against one gene apart. No sequences are given here. Not stated in the record: the amount of reagent.

| target | reagent | G2 robust z-score | G2 cells, % of GMNN control | raw share of cells in G2 (%) |
| --- | --- | --- | --- | --- |
| PER1 | 1 | 0.163 | 4.11 | 5.09 |
| PER1 | 2 | -0.796 | -2.64 | 3.61 |
| PER1 | 3 | -0.188 | 1.65 | 3.71 |
| BMP3 | 1 | -0.323 | 0.694 | 5.63 |
| BMP3 | 2 | 2.85 | 23 | 12.5 |
| BMP3 | 3 | -0.132 | 2.04 | 4.32 |
| CHIA | 1 | 2.4 | 19.9 | 10.8 |
| CHIA | 2 | 1.67 | 14.7 | 12.8 |
| CHIA | 3 | -0.548 | -0.891 | 3.7 |
| HHIP | 1 | -1.75 | -9.34 | 1.78 |
| HHIP | 2 | 2.74 | 22.3 | 12.2 |
| HHIP | 3 | -0.867 | -3.13 | 3.09 |
| TNS2 | 1 | 2.35 | 19.5 | 10.6 |
| TNS2 | 2 | 4.28 | 33.1 | 19.6 |
| TNS2 | 3 | 0.0448 | 3.28 | 5.25 |
| PSG11 | 1 | -0.865 | -3.12 | 3.65 |
| PSG11 | 2 | -0.0295 | 2.76 | 5.31 |
| PSG11 | 3 | 0.812 | 8.68 | 6.49 |
| L3HYPDH | 1 | 0.31 | 5.15 | 6.15 |
| L3HYPDH | 2 | 0.896 | 9.27 | 6.09 |
| L3HYPDH | 3 | -0.277 | 1.02 | 2.12 |
| EXOC7 | 1 | -0.86 | -3.08 | 2.5 |
| EXOC7 | 2 | 0.118 | 3.8 | 7.68 |
| EXOC7 | 3 | 0.74 | 8.17 | 6.76 |
| GSX1 | 1 | -0.171 | 1.77 | 5.44 |
| GSX1 | 2 | -0.0916 | 2.32 | 5.55 |
| GSX1 | 3 | 3.26 | 25.9 | 18.3 |
| C2orf78 | 1 | 0.233 | 4.61 | 5.35 |
| C2orf78 | 2 | 0.804 | 8.63 | 7.16 |
| C2orf78 | 3 | 1.35 | 12.5 | 9.97 |
| TGFBR3L | 1 | 0.00111 | 2.98 | 4.33 |
| TGFBR3L | 2 | 0.496 | 6.46 | 5.09 |
| TGFBR3L | 3 | 1.7 | 14.9 | 9.42 |
| REEP3 | 1 | -0.295 | 0.892 | 3.9 |
| REEP3 | 2 | -0.604 | -1.28 | 2.69 |
| REEP3 | 3 | -0.896 | -3.34 | 2.13 |
| MAST3 | 1 | -1.71 | -9.1 | 2.76 |
| MAST3 | 2 | -1.21 | -5.57 | 3.17 |
| MAST3 | 3 | -0.0551 | 2.58 | 4.51 |
| MTAP | 1 | -0.0431 | 2.66 | 6.39 |
| MTAP | 2 | -0.291 | 0.921 | 3.5 |
| MTAP | 3 | -0.388 | 0.237 | 5.56 |
| H3-4 | 1 | -0.188 | 1.64 | 5.86 |
| H3-4 | 2 | 1.31 | 12.2 | 8.74 |
| H3-4 | 3 | 0.216 | 4.49 | 4.94 |
| GMEB2 | 1 | 0.435 | 6.03 | 8.9 |
| GMEB2 | 2 | 0.328 | 5.28 | 5.94 |
| GMEB2 | 3 | 3.9 | 30.4 | 13.9 |
| PCSK6 | 1 | -0.905 | -3.4 | 2.64 |
| PCSK6 | 2 | -0.0646 | 2.51 | 6.44 |
| PCSK6 | 3 | -0.284 | 0.972 | 5.25 |
| STK24 | 1 | 0.747 | 8.22 | 8.32 |
| STK24 | 2 | -1.28 | -6.01 | 3.38 |
| STK24 | 3 | -1.11 | -4.87 | 2.31 |
| PARP11 | 1 | -0.417 | 0.0312 | 6.44 |
| PARP11 | 2 | -0.188 | 1.65 | 5.02 |
| PARP11 | 3 | -0.936 | -3.62 | 3.14 |
| SRA1 | 1 | 1.18 | 11.3 | 9.33 |
| SRA1 | 2 | -0.479 | -0.4 | 5.05 |
| SRA1 | 3 | 0.545 | 6.8 | 5.52 |
| NPC1 | 1 | -0.474 | -0.369 | 3.07 |
| NPC1 | 2 | -0.363 | 0.412 | 5.52 |
| NPC1 | 3 | -0.63 | -1.46 | 4.89 |
| CCDC87 | 1 | -1.39 | -6.82 | 1.9 |
| CCDC87 | 2 | -0.166 | 1.8 | 4.88 |
| CCDC87 | 3 | -0.932 | -3.59 | 1.99 |
| USP46 | 1 | -1.37 | -6.67 | 2.78 |
| USP46 | 2 | -0.739 | -2.23 | 3.74 |
| USP46 | 3 | -0.242 | 1.27 | 4.73 |
| GNB5 | 1 | 1.59 | 14.2 | 11.9 |
| GNB5 | 2 | 0.154 | 4.05 | 5.15 |
| GNB5 | 3 | -0.751 | -2.32 | 5.57 |
| IRF2BP2 | 1 | -0.849 | -3.01 | 2.95 |
| IRF2BP2 | 2 | 1.27 | 11.9 | 8.47 |
| IRF2BP2 | 3 | 1.24 | 11.7 | 8.89 |
| GUCA2A | 1 | -0.986 | -3.97 | 2.75 |
| GUCA2A | 2 | -0.464 | -0.299 | 4.94 |
| GUCA2A | 3 | -0.877 | -3.2 | 4.46 |
| MFSD11 | 1 | -0.133 | 2.03 | 3.23 |
| MFSD11 | 2 | 0.463 | 6.23 | 7.29 |
| MFSD11 | 3 | -0.895 | -3.33 | 3.12 |
| PGAP1 | 1 | 5.32 (active) | 40.4 | 19.7 |
| PGAP1 | 2 | -0.342 | 0.563 | 4.4 |
| PGAP1 | 3 | 1.43 | 13 | 10.8 |
| POLR2J | 1 | -1.09 | -4.71 | 3.36 |
| POLR2J | 2 | -0.0551 | 2.58 | 5.66 |
| POLR2J | 3 | 12.1 (active) | 88.3 | 33.5 |

Active calls (from the list above):
| target | reagent | G2 robust z-score | G2 cells, % of GMNN control | raw share of cells in G2 (%) |
| --- | --- | --- | --- | --- |
| PGAP1 | 1 | 5.32 (active) | 40.4 | 19.7 |
| POLR2J | 3 | 12.1 (active) | 88.3 | 33.5 |
